Results as given in the supplement of paper PMC10849652.
Some of the results follow.

Protein sequences, listed by entry. Tags and fused reporters are not part of them. Lines headed by an entry give the natural chain unless they say otherwise; changes in a name come on top.
UniProt P48739: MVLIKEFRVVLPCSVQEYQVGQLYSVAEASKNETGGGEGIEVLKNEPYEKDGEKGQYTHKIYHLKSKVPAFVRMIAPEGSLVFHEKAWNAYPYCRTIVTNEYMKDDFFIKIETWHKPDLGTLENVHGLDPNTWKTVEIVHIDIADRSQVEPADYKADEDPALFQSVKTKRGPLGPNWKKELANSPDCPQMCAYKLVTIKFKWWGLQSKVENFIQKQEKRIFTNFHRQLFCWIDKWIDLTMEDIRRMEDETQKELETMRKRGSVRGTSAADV
UniProt Q92576, whole entry, looked up: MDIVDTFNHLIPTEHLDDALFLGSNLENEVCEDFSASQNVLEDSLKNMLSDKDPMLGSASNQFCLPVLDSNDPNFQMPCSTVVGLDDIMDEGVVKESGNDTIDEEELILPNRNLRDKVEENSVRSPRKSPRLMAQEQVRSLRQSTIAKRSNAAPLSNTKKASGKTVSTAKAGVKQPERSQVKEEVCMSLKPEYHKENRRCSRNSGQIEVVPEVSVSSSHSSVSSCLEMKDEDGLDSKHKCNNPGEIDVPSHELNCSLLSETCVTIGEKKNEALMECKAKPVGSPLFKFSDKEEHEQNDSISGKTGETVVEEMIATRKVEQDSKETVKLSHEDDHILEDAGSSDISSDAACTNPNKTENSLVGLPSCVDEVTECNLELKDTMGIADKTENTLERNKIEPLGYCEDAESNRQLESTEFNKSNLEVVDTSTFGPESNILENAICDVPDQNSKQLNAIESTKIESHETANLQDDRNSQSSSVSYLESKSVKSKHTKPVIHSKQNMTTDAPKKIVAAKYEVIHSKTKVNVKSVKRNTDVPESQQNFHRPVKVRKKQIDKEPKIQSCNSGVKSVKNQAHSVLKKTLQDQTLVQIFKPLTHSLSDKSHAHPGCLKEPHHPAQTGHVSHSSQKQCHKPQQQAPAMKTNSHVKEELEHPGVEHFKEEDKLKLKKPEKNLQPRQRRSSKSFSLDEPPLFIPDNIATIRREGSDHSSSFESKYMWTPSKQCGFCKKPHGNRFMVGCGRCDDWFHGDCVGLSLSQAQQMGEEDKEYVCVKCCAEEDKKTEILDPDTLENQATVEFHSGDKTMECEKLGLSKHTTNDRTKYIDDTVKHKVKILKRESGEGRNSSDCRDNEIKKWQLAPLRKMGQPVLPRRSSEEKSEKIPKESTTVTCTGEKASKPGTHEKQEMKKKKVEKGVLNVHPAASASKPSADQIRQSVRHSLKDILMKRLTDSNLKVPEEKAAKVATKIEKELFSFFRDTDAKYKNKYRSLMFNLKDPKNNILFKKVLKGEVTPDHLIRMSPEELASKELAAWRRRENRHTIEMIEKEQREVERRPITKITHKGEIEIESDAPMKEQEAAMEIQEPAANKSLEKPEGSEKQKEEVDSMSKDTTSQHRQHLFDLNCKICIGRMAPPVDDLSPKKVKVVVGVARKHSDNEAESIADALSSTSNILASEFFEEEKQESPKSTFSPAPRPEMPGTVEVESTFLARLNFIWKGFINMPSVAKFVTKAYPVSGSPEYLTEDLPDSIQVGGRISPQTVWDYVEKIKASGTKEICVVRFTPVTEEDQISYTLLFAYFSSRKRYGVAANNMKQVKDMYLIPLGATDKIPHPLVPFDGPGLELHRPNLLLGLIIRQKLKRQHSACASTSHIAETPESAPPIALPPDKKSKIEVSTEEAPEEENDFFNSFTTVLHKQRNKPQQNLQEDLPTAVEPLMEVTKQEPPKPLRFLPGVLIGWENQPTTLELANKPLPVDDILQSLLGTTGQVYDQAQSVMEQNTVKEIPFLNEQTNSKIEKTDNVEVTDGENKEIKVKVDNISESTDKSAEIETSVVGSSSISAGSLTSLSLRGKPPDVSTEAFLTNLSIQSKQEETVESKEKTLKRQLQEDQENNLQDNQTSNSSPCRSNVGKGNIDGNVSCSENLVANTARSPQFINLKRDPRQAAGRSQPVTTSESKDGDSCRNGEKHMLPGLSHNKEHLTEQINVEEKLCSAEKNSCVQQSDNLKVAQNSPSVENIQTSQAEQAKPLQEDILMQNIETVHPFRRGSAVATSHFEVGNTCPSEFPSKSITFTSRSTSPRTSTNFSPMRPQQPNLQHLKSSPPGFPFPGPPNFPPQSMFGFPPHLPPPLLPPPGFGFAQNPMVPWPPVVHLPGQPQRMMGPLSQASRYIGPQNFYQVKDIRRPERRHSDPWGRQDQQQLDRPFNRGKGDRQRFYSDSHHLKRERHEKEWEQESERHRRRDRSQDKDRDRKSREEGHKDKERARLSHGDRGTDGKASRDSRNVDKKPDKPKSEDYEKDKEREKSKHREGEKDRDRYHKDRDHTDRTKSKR
UniProt P28328: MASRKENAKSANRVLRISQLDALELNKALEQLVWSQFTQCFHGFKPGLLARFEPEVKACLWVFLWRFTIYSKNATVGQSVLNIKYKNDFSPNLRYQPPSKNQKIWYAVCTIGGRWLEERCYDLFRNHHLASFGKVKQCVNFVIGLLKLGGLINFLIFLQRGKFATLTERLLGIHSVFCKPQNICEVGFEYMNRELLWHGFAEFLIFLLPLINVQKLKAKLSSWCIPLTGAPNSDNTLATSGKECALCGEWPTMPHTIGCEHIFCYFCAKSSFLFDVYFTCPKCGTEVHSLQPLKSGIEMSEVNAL
UniProt P12273: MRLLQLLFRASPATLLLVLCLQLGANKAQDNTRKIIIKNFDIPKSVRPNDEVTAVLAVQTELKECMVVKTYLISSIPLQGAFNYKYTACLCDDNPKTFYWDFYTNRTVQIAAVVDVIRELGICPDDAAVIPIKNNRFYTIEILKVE
UniProt O43175: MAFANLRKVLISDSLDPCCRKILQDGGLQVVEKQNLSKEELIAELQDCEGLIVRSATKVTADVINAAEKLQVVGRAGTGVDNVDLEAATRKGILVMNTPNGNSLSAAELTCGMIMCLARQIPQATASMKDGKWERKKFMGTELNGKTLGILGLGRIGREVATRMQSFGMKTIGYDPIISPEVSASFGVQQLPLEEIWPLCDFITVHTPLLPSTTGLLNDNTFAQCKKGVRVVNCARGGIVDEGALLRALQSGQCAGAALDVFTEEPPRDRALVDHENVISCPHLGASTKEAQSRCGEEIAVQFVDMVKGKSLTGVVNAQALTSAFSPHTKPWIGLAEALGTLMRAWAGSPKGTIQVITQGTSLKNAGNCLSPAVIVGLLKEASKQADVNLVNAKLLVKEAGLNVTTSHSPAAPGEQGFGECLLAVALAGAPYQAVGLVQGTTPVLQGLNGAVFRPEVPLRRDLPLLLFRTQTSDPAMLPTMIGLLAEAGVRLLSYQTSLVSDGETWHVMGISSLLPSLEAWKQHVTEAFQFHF
UniProt O15067: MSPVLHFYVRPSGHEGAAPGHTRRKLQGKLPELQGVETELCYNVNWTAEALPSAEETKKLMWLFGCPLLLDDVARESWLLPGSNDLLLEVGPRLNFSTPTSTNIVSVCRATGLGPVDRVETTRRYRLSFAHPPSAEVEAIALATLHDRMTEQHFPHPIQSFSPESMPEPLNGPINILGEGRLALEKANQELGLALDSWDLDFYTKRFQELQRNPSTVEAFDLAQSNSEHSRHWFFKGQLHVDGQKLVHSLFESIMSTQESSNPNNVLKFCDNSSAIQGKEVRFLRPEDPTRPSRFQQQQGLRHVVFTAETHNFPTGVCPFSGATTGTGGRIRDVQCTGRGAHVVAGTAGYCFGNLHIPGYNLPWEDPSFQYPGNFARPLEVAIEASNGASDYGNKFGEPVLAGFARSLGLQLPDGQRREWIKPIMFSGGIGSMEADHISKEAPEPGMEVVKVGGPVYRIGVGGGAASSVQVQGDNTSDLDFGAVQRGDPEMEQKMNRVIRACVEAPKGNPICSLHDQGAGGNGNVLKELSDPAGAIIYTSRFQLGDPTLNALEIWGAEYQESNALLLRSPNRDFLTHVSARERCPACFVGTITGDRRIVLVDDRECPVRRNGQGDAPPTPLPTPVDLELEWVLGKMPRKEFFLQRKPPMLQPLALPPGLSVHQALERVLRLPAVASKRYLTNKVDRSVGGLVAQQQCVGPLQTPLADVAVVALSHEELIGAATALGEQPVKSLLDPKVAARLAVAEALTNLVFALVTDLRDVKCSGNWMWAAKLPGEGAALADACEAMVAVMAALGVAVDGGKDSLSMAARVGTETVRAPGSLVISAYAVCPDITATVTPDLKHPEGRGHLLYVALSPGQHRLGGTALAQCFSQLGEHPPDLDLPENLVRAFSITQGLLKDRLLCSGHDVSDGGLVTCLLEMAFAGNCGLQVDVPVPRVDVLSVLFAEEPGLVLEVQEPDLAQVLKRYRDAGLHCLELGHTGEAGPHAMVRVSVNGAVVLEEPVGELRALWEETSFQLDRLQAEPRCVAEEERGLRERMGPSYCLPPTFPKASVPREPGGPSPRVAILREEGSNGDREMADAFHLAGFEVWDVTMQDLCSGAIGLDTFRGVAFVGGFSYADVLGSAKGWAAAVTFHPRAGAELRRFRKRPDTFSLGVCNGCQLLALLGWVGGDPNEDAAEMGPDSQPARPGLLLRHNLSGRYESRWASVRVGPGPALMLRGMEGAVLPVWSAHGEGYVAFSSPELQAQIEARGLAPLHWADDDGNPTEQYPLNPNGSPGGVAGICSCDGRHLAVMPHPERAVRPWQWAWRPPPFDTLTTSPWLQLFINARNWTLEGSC
UniProt Q92521: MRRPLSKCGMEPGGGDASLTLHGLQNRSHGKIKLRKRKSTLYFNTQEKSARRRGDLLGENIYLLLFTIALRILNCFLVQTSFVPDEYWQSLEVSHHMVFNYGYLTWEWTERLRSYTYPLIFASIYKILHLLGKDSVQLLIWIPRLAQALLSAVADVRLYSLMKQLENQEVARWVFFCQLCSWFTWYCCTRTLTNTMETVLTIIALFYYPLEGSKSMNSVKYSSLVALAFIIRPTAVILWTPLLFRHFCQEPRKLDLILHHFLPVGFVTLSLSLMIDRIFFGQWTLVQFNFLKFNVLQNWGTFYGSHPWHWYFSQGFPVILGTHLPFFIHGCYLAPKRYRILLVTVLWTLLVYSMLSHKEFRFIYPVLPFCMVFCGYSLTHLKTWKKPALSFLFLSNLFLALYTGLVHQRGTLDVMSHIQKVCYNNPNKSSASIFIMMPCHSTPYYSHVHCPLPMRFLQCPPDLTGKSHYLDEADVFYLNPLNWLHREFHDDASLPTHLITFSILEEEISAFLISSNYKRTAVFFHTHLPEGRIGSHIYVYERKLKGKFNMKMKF
UniProt Q9HAU0: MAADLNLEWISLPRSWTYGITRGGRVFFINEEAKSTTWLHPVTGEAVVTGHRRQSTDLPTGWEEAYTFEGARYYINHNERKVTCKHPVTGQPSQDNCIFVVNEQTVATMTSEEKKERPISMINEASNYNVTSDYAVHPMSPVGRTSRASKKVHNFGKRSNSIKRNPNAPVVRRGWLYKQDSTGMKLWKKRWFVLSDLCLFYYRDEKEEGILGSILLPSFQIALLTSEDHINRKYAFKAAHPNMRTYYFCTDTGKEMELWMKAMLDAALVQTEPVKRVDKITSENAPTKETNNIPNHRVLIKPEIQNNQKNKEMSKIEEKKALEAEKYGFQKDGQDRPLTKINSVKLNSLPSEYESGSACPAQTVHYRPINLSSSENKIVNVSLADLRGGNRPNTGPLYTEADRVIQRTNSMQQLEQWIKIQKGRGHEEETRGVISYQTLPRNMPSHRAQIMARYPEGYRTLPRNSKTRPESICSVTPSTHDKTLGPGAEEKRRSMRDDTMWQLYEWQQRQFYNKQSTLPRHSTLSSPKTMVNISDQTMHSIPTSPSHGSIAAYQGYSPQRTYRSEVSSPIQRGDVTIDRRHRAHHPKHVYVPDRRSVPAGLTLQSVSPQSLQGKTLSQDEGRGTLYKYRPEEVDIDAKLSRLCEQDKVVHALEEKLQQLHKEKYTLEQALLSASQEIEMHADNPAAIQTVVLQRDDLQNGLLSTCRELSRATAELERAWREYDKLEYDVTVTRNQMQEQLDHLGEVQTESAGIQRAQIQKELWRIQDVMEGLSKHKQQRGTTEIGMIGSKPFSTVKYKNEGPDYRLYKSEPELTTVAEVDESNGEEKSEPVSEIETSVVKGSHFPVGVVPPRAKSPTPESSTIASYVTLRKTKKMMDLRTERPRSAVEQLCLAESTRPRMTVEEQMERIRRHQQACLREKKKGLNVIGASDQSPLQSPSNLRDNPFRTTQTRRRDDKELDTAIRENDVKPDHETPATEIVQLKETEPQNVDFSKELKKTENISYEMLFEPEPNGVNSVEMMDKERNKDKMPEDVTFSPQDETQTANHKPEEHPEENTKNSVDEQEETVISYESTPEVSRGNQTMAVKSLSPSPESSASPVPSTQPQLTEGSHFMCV
UniProt Q8N0Y7: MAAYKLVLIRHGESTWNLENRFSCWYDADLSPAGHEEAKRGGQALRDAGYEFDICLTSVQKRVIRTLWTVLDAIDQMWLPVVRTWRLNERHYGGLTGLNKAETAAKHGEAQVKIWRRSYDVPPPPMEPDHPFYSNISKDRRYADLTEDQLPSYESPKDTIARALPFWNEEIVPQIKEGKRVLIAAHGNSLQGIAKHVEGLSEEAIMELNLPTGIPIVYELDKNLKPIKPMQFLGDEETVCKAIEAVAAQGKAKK

What follows are targets tested with c1cn2cc(-c3ccc4cn[nH]c4c3)nc(Nc3ccc(N4CCOCC4)cc3)c2n1 [entospletinib] (assay: log2 fold change, soluble protein after heating vs DMSO (PISA); higher = thermal stabilisation; K562 cells, 10 uM, 30 min; active = over 0.2 and 3.5 SD of the protein, either way, in both replicates (recomputed)).
How it was run: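 Thermal stability values are relative to control samples and come from duplicates. They are expressed as log2 fold changes. For measurement, K562 cells (2×10^6 cells/mL) received 10 μM compound for 30 min, and aliquots were heated for 3 min over 48°C-58°C, pooled, and extracted at 4°C in PBS with 0.5% NP-40. Soluble protein, the supernatant after 21,000xg for 90 min, was quantified by TMTpro 16plex LC-MS/MS with equalised channel sums.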

Target | log2 fold change
PGK1 (UniProt P00558) | inactive: 0.034
PFKP (UniProt Q01813) | inactive: 0
PITPNB isoform 3 (UniProt P48739) | inactive: 0.017
PLA2G12A (UniProt Q9BZM1) | inactive: -0.053
PHF3 (UniProt Q92576) | inactive: 0.113
PEX2 (UniProt P28328) | inactive: -0.033
PHB (UniProt P35232) | inactive: -0.006
PLCG2 (UniProt P16885) | inactive: -0.042
PLCH1 (UniProt Q4KWH8) | inactive: -0.037
PIP (UniProt P12273) | inactive: -0.231
PFDN4 (UniProt Q9NQP4) | inactive: 0.046
PGS1 (UniProt Q32NB8) | inactive: -0.124
PI4KB isoform 2 (UniProt Q9UBF8) | inactive: 0.085
PKP4 (UniProt Q99569) | inactive: 0.018
PEX19 (UniProt P40855) | inactive: 0.019
PIGW (UniProt Q7Z7B1) | inactive: -0.059
PHGDH (UniProt O43175) | inactive: 0.004
PGM2L1 (UniProt Q6PCE3) | inactive: -0.001
PLEC (UniProt Q15149) | inactive: 0.043
PEX3 (UniProt P56589) | inactive: 0.01
PIK3CG (UniProt P48736) | inactive: 0.038
PFAS (UniProt O15067) | active: -0.399
PGP (UniProt A6NDG6) | inactive: 0
PKP3 isoform 2 (UniProt Q9Y446) | inactive: 0.199
PLAA (UniProt Q9Y263) | inactive: 0.007
PGD (UniProt P52209) | inactive: -0.05
PIGB (UniProt Q92521) | inactive: 0.075
PFDN5 (UniProt Q99471) | inactive: 0.014
PLEKHA5 isoform 6 (UniProt Q9HAU0) | inactive: 0.468
PGAM4 (UniProt Q8N0Y7) | inactive: 0.017

Some of the entries so far, comma-delimited.
Target,log2 fold change
PI4KB isoform 2 (UniProt Q9UBF8),inactive: 0.085
PKP4 (UniProt Q99569),inactive: 0.018
